PubChem BioAssay AID1259405 | NCATS – 2018
This is an unselected part of about 50,000 deposited reagents. About 4,000 of them (8%) were called active. 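Mouse siRNA library applied to hamster cells; one well for each siRNA.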 Further read-outs or replicates are left out here.

Assay: 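Silenced genes that increase secreted GFP made by CHO cells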 (primary screen)
Cells: Chinese hamster CHO-K1 ovary cells with stable secreted eGFP expression
Reagent: single siRNA against mouse genes, 0.8 pmol siRNA per well (2 µl of 400 nM stock)
Time to read-out: 3 days
Read-out: 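Per-well intracellular GFP measured by laser scanning cytometry, plus viability from ATP luminescence, each relative to plate median of non-targeting control wells, in %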
Direction: GFP, % of control: higher = more GFP per well, higher productivity
Rule for the call: 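Called active when intracellular GFP, relative to negative control, is at or above 120%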

GFP, % of control, by gene knocked down and reagent
Cox6a1: SID363568896 31.3 inactive; SID363576288 67.9 inactive; SID363579104 78 inactive
Spsb3: SID363581790 91 inactive; SID363589284 78.9 inactive
Tram1l1: SID363556538 58 inactive; SID363586988 109 inactive; SID363589096 84.3 inactive
Ubl7: SID363543407 124 active; SID363552900 143 active; SID363558748 80.3 inactive
Mdn1: SID363572750 62.8 inactive; SID363578030 107 inactive; SID363582254 103 inactive
Fam25a: SID363543640 78.1 inactive; SID363553133 70.9 inactive; SID363558981 61.5 inactive
Serpinb9c: SID363555417 99.6 inactive; SID363564078 65.9 inactive; SID363587624 98.9 inactive
Phf8l: SID363542283 103 inactive; SID363551774 67.6 inactive; SID363559379 79 inactive
Bora: SID363552329 97.5 inactive; SID363585465 87.3 inactive; SID363585816 129 active
4921536K21Rik: SID363542611 65.8 inactive; SID363552102 69.3 inactive; SID363559707 95.1 inactive
Fkbp14: SID363572550 66.2 inactive; SID363577830 118 inactive; SID363582054 91.9 inactive
Tdpoz2: SID363547516 117 inactive; SID363558285 77.8 inactive; SID363560043 67.4 inactive
Mtrfr: SID363553948 78.9 inactive; SID363561905 75.8 inactive; SID363565643 57.5 inactive
Cyld: SID363554039 65.4 inactive; SID363561996 95.9 inactive; SID363565734 96.7 inactive
Arl5a: SID363541473 61.7 inactive; SID363556100 95.4 inactive; SID363566389 58.8 inactive
Or1m1: SID363554410 56.2 inactive; SID363567857 79.2 inactive; SID363585214 57.1 inactive
Cop1: SID363541809 121 active; SID363553401 31 inactive; SID363566725 75.4 inactive
Ly6g5b: SID363581638 131 active; SID363589132 94 inactive
Tango6: SID363546561 51.7 inactive; SID363548317 66.4 inactive; SID363560495 80.2 inactive

A run of entries taken from the entries so far:
GFP, % of control, by gene knocked down and reagent
Fkbp14: SID363572550 66.2 inactive; SID363577830 118 inactive; SID363582054 91.9 inactive
Tdpoz2: SID363547516 117 inactive; SID363558285 77.8 inactive; SID363560043 67.4 inactive
Mtrfr: SID363553948 78.9 inactive

The results go on.
GFP, % of control, by gene knocked down and reagent
Ntpcr: SID363543872 100 inactive; SID363551608 62.8 inactive; SID363559213 72.3 inactive
Chlsn: SID363542456 81.6 inactive; SID363551947 45.3 inactive; SID363559552 65.9 inactive
Usb1: SID363542914 65 inactive; SID363546431 58.6 inactive; SID363548187 55.7 inactive
Or4a47: SID363554266 51.9 inactive; SID363567713 149 active; SID363585070 72.2 inactive
Sub1: SID363581653 73.5 inactive; SID363589147 83.1 inactive
Cybb: SID363572969 80.8 inactive; SID363577545 85 inactive; SID363581065 193 active
Gm5111: SID363542889 100 inactive; SID363546406 36.5 inactive; SID363548162 67.7 inactive
Dppa3: SID363539589 102 inactive; SID363560890 137 active; SID363564980 80.7 inactive
Prpf19: SID363569059 113 inactive; SID363583491 83.9 inactive
Zfp57: SID363573694 87.7 inactive; SID363581438 68.8 inactive; SID363583902 63.8 inactive
Xdh: SID363573167 80.5 inactive; SID363577743 109 inactive; SID363581263 61.6 inactive
